# Experimental data published in the supplement of paper PMC4635364.
# Where a name gives a salt, the structure may show the parent alone. Some of the results follow. Repeats in this data set agree poorly, so a single value says little.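 Cells: ReNCell VM human fetal ventral-midbrain neural progenitors, differentiated mitogen-free. Blinded raters compared doublecortin-stained (early neurons) or tyrosine hydroxylase-stained (dopaminergic neurons) images with untreated wells, where 0 means no change. After repeats and both raters were averaged, compounds scoring 2 or above became hits for retesting.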
# Key:
# ReNCell VM [1] = test: neuronal differentiation score (DCX+ cell fraction vs untreated, manual image score) (score (-3 to 3)); higher = more neuronal differentiation; conditions: 2 uM, 2 weeks
# ReNCell VM [2] = test: dopaminergic neuron differentiation score (TH+ cell fraction vs untreated, manual image score) (score (0 to 3)); higher = more TH+ dopaminergic neuron differentiation; conditions: 2 uM, 4 weeks, BDNF 10 ng/ml + GDNF 10 ng/ml
smiles,measurement,setting,value
COc1ccccc1N1CCN(CCCCN2C(=O)c3ccccc3C2=O)CC1 [NAN-190 hydrobromide],neuronal differentiation score,ReNCell VM [1]; library: LOPAC,inactive: 0
same,neuronal differentiation score,ReNCell VM [1]; library: Tocriscreen,inactive: 0
same,dopaminergic neuron differentiation score,ReNCell VM [2]; library: LOPAC,inactive: 0
same,dopaminergic neuron differentiation score,ReNCell VM [2]; library: Tocriscreen,inactive: 0
O=c1c(O)c(-c2ccc(O)cc2)oc2cc(O)cc(O)c12 [Kaempferol],neuronal differentiation score,ReNCell VM [1]; library: Phytochemical,inactive: 0
same,neuronal differentiation score,ReNCell VM [1]; library: Tocriscreen,inactive: 0
same,dopaminergic neuron differentiation score,ReNCell VM [2]; library: Phytochemical,inactive: 0
same,dopaminergic neuron differentiation score,ReNCell VM [2]; library: Tocriscreen,inactive: 0
CC(C)(C)NCC(O)c1ccc(O)c(CO)c1 (stereo not given) [Salbutamol],neuronal differentiation score,ReNCell VM [1]; library: LOPAC,inactive: 0
same,neuronal differentiation score,ReNCell VM [1]; library: Prestwick,inactive: 0
same,dopaminergic neuron differentiation score,ReNCell VM [2]; library: LOPAC,inactive: 0
same,dopaminergic neuron differentiation score,ReNCell VM [2]; library: Prestwick,inactive: 0
CN1[C@@H]2CC[C@H]1C[C@@H](OC(c1ccccc1)c1ccccc1)C2 [Benztropine mesylate],neuronal differentiation score,ReNCell VM [1]; library: LOPAC,inactive: 0
same,neuronal differentiation score,ReNCell VM [1]; library: Prestwick,inactive: 0
same,dopaminergic neuron differentiation score,ReNCell VM [2]; library: LOPAC,inactive: 0
same,dopaminergic neuron differentiation score,ReNCell VM [2]; library: Prestwick,inactive: 0
Cc1ccccc1N1C(=O)c2cc(S(N)(=O)=O)c(Cl)cc2NC1C (stereo not given) [Metolazone],neuronal differentiation score,ReNCell VM [1]; library: LOPAC,inactive: 0
same,neuronal differentiation score,ReNCell VM [1]; library: Prestwick,inactive: 0
same,dopaminergic neuron differentiation score,ReNCell VM [2]; library: LOPAC,inactive: 0
same,dopaminergic neuron differentiation score,ReNCell VM [2]; library: Prestwick,inactive: 0
CN(C)[C@@H]1C(O)=C(C(N)=O)C(=O)[C@@]2(O)C(O)=C3C(=O)c4c(O)ccc(Cl)c4[C@@H](O)[C@H]3C[C@@H]12 [Demeclocycline hydrochloride],neuronal differentiation score,ReNCell VM [1]; library: LOPAC,inactive: 0
same,neuronal differentiation score,ReNCell VM [1]; library: Prestwick,inactive: 0
same,dopaminergic neuron differentiation score,ReNCell VM [2]; library: LOPAC,inactive: 0
same,dopaminergic neuron differentiation score,ReNCell VM [2]; library: Prestwick,inactive: 0
"C[C@@]1(O)CCOC(=O)C1 [Mevalonic-D, L acid lactone]",neuronal differentiation score,ReNCell VM [1]; library: Phytochemical,inactive: 0
same,neuronal differentiation score,ReNCell VM [1]; library: Prestwick,inactive: 0
same,dopaminergic neuron differentiation score,ReNCell VM [2]; library: Phytochemical,inactive: 0
same,dopaminergic neuron differentiation score,ReNCell VM [2]; library: Prestwick,inactive: 0
c1ccc(CN(CC2=NCCN2)c2ccccc2)cc1 [Antazoline hydrochloride],neuronal differentiation score,ReNCell VM [1]; library: Prestwick,inactive: 0
same,neuronal differentiation score,ReNCell VM [1]; library: Tocriscreen,inactive: 0
same,dopaminergic neuron differentiation score,ReNCell VM [2]; library: Prestwick,inactive: 0
same,dopaminergic neuron differentiation score,ReNCell VM [2]; library: Tocriscreen,inactive: 0
CC1=NN(c2ccccc2)C(=O)C1,neuronal differentiation score,ReNCell VM [1]; library: Spectrum,inactive: 0
same,neuronal differentiation score,ReNCell VM [1]; library: Tocriscreen,inactive: 0
same,dopaminergic neuron differentiation score,ReNCell VM [2]; library: Spectrum,inactive: 0
same,dopaminergic neuron differentiation score,ReNCell VM [2]; library: Tocriscreen,inactive: 0
CNC(=O)[C@H]1O[C@@H](n2cnc3c(NCc4cccc(I)c4)ncnc32)[C@H](O)[C@@H]1O,neuronal differentiation score,ReNCell VM [1]; library: LOPAC,inactive: 0
same,neuronal differentiation score,ReNCell VM [1]; library: Tocriscreen,inactive: 0
same,dopaminergic neuron differentiation score,ReNCell VM [2]; library: LOPAC,inactive: 0
same,dopaminergic neuron differentiation score,ReNCell VM [2]; library: Tocriscreen,inactive: 0
CC(C)NCC(O)c1ccc(NS(C)(=O)=O)cc1 (stereo not given) [Sotalol hydrochloride],neuronal differentiation score,ReNCell VM [1]; library: Prestwick,inactive: 1
same,neuronal differentiation score,ReNCell VM [1]; library: Tocriscreen,inactive: 1
same,dopaminergic neuron differentiation score,ReNCell VM [2]; library: Prestwick,inactive: 0
same,dopaminergic neuron differentiation score,ReNCell VM [2]; library: Tocriscreen,inactive: 0
NCC(O)(CS(=O)(=O)O)c1ccc(Cl)cc1 (stereo not given) [2-Hydroxysaclofen],neuronal differentiation score,ReNCell VM [1]; library: LOPAC,inactive: 0
same,neuronal differentiation score,ReNCell VM [1]; library: Tocriscreen,inactive: 0
same,dopaminergic neuron differentiation score,ReNCell VM [2]; library: LOPAC,inactive: 0
same,dopaminergic neuron differentiation score,ReNCell VM [2]; library: Tocriscreen,inactive: 0
CC(/C=C/c1cccc(Oc2ccc(F)cc2)c1)N(O)C(N)=O (stereo not given),neuronal differentiation score,ReNCell VM [1]; library: LOPAC,active: 3
same,neuronal differentiation score,ReNCell VM [1]; library: Tocriscreen,inactive: 1
same,dopaminergic neuron differentiation score,ReNCell VM [2]; library: LOPAC,inactive: 1
same,dopaminergic neuron differentiation score,ReNCell VM [2]; library: Tocriscreen,inactive: 0
O=C(Nc1ccccc1)c1cc([N+](=O)[O-])ccc1Cl,neuronal differentiation score,ReNCell VM [1]; library: LOPAC,inactive: 0
same,neuronal differentiation score,ReNCell VM [1]; library: Tocriscreen,inactive: 0
same,dopaminergic neuron differentiation score,ReNCell VM [2]; library: LOPAC,inactive: 0
same,dopaminergic neuron differentiation score,ReNCell VM [2]; library: Tocriscreen,inactive: 0
CN(C)CCN(Cc1cccs1)c1ccccn1 [Methapyrilene hydrochloride],neuronal differentiation score,ReNCell VM [1]; library: LOPAC,inactive: 0
same,neuronal differentiation score,ReNCell VM [1]; library: Prestwick,inactive: 0
same,dopaminergic neuron differentiation score,ReNCell VM [2]; library: LOPAC,inactive: 0
same,dopaminergic neuron differentiation score,ReNCell VM [2]; library: Prestwick,inactive: 0
COc1ccc2[nH]c([S+]([O-])Cc3ncc(C)c(OC)c3C)nc2c1 (stereo not given) [Omeprazole],neuronal differentiation score,ReNCell VM [1]; library: Prestwick,inactive: 0
same,neuronal differentiation score,ReNCell VM [1]; library: Tocriscreen,inactive: 0
same,dopaminergic neuron differentiation score,ReNCell VM [2]; library: Prestwick,inactive: 0
same,dopaminergic neuron differentiation score,ReNCell VM [2]; library: Tocriscreen,inactive: 0
CC(C)(C)c1ccc(S(=O)(=O)/C=C/C#N)cc1,neuronal differentiation score,ReNCell VM [1]; library: LOPAC,inactive: 1
same,neuronal differentiation score,ReNCell VM [1]; library: Tocriscreen,inactive: 0
same,dopaminergic neuron differentiation score,ReNCell VM [2]; library: LOPAC,inactive: 0
same,dopaminergic neuron differentiation score,ReNCell VM [2]; library: Tocriscreen,inactive: 0
C[C@H]1c2cccc(O)c2C(=O)C2=C(O)[C@]3(O)C(=O)C(C(N)=O)=C(O)[C@@H](N(C)C)[C@@H]3[C@@H](O)[C@@H]21 [Doxycycline hydrochloride],neuronal differentiation score,ReNCell VM [1]; library: LOPAC,inactive: 0
same,neuronal differentiation score,ReNCell VM [1]; library: Prestwick,inactive: 0
same,dopaminergic neuron differentiation score,ReNCell VM [2]; library: LOPAC,inactive: 0
same,dopaminergic neuron differentiation score,ReNCell VM [2]; library: Prestwick,inactive: 0
CN1CCN2c3ccccc3Cc3ccccc3C2C1 (stereo not given) [Mianserin hydrochloride],neuronal differentiation score,ReNCell VM [1]; library: LOPAC,inactive: 0
same,neuronal differentiation score,ReNCell VM [1]; library: Tocriscreen,inactive: 0
same,dopaminergic neuron differentiation score,ReNCell VM [2]; library: LOPAC,inactive: 0
same,dopaminergic neuron differentiation score,ReNCell VM [2]; library: Tocriscreen,inactive: 0
NC(N)=Nc1nc(CSCC/C(N)=N/S(N)(=O)=O)cs1 [Famotidine],neuronal differentiation score,ReNCell VM [1]; library: LOPAC,inactive: 0
same,neuronal differentiation score,ReNCell VM [1]; library: Prestwick,inactive: 0
same,dopaminergic neuron differentiation score,ReNCell VM [2]; library: LOPAC,inactive: 0
same,dopaminergic neuron differentiation score,ReNCell VM [2]; library: Prestwick,inactive: 0
O=C(O)/C=C/c1ccc(Cn2ccnc2)cc1 [Ozagrel hydrochloride],neuronal differentiation score,ReNCell VM [1]; library: Prestwick,inactive: 0
same,neuronal differentiation score,ReNCell VM [1]; library: Tocriscreen,inactive: 0
same,dopaminergic neuron differentiation score,ReNCell VM [2]; library: Prestwick,inactive: 0
same,dopaminergic neuron differentiation score,ReNCell VM [2]; library: Tocriscreen,inactive: 0
C[N+](C)(C)CCCCCNCC12CC3CC(CC(C3)C1)C2,neuronal differentiation score,ReNCell VM [1]; library: LOPAC,inactive: 0
same,neuronal differentiation score,ReNCell VM [1]; library: Tocriscreen,inactive: 0
same,dopaminergic neuron differentiation score,ReNCell VM [2]; library: LOPAC,inactive: 0
same,dopaminergic neuron differentiation score,ReNCell VM [2]; library: Tocriscreen,inactive: 0
Nc1ncnc2n[nH]c(Nc3ccc(F)cc3)c12,neuronal differentiation score,ReNCell VM [1]; library: LOPAC,inactive: 0
same,neuronal differentiation score,ReNCell VM [1]; library: Tocriscreen,inactive: 0
same,dopaminergic neuron differentiation score,ReNCell VM [2]; library: LOPAC,active: 3
same,dopaminergic neuron differentiation score,ReNCell VM [2]; library: Tocriscreen,inactive: 0
Cn1c(=O)c2nc[nH]c2n(C)c1=O [Theophylline monohydrate],neuronal differentiation score,ReNCell VM [1]; library: Phytochemical,inactive: 0
same,neuronal differentiation score,ReNCell VM [1]; library: Prestwick,inactive: 0
same,dopaminergic neuron differentiation score,ReNCell VM [2]; library: Phytochemical,inactive: 0
same,dopaminergic neuron differentiation score,ReNCell VM [2]; library: Prestwick,inactive: 0
CC(C)NCC(O)c1ccc2ccccc2c1 (stereo not given) [Pronethalol hydrochloride],neuronal differentiation score,ReNCell VM [1]; library: Prestwick,inactive: 0
same,neuronal differentiation score,ReNCell VM [1]; library: Tocriscreen,inactive: 0
same,dopaminergic neuron differentiation score,ReNCell VM [2]; library: Prestwick,inactive: 0
same,dopaminergic neuron differentiation score,ReNCell VM [2]; library: Tocriscreen,inactive: 0

# Already shown: an excerpt of the list.
smiles,measurement,setting,value
CN1CCN2c3ccccc3Cc3ccccc3C2C1 (stereo not given) [Mianserin hydrochloride],dopaminergic neuron differentiation score,ReNCell VM [2]; library: LOPAC,inactive: 0
same,dopaminergic neuron differentiation score,ReNCell VM [2]; library: Tocriscreen,inactive: 0
NC(N)=Nc1nc(CSCC/C(N)=N/S(N)(=O)=O)cs1 [Famotidine],neuronal differentiation score,ReNCell VM [1]; library: LOPAC,inactive: 0
same,neuronal differentiation score,ReNCell VM [1]; library: Prestwick,inactive: 0
same,dopaminergic neuron differentiation score,ReNCell VM [2]; library: LOPAC,inactive: 0
same,dopaminergic neuron differentiation score,ReNCell VM [2]; library: Prestwick,inactive: 0
